{
  "source": "paper PMC12040169",
  "about": "(PLOS Biology, 2025)",
  "note": "This is one part of the list.",
  "data": [
    {"system": "T1, CTL2-GFP (C. trachomatis L2/434/Bu, GFP-expressing)", "T1 construct": "L2/434/Bu, GFP-expressing", "design": "species or system HeLa; Intracellular C. trachomatis growth in HeLa cells, bulk GFP fluorescence relative to DMSO", "conditions": "bulk GFP, single well; 28.5 h, 10 µM; inhibitor", "units": {"% of control remaining": "%"}, "values": [
      {"compound": "O=C(O)CNS(=O)(=O)c1ccc(-c2ccccc2)cc1", "note": "[CBK034457]", "% of control remaining": 130.039},
      {"compound": "CC(C)(C)C(=O)/N=c1/[nH]nc(-c2cccnc2)s1", "note": "[CBK288203]", "% of control remaining": 163.009},
      {"compound": "Cc1ccc(-c2cc(C(=O)N(C)Cc3cccn3C)[nH]n2)o1", "note": "[CBK283324]", "% of control remaining": 85.2979},
      {"compound": "Cc1ccc(-c2n[nH]c(=S)n2CCC(=O)N(C)Cc2ccc(N3CCCCC3)cc2)cc1", "note": "[CBK297904]", "% of control remaining": 33.2434},
      {"compound": "COc1cc(-c2cnc(N)c(NCc3ccncc3)n2)cc(OC)c1OC", "note": "[CBK063646]", "% of control remaining": 162.947},
      {"compound": "O=C(O)c1nsnc1C(=O)O", "note": "[CBK278311K]", "% of control remaining": 82.0814},
      {"compound": "CN(C)c1nc(Cl)c(C=Cc2cc(C(=O)O)c3ccccc3n2)s1", "note": "[CBK298272]", "% of control remaining": 129.601},
      {"compound": "CC(NC(=O)c1ccccc1)C(=O)OCn1nnc2ccccc2c1=O", "note": "(stereo not shown) [CBK297001]", "% of control remaining": 158.635},
      {"compound": "O=C(Cc1ccccc1)N1CCN(Cc2ccc3ccccc3c2)CC1", "note": "[CBK263037]", "% of control remaining": 89.7941},
      {"compound": "CN1CCC2(CCC1=O)CC(NC(=O)C1CC1)c1ccccc1O2", "note": "(stereo not shown) [CBK284455]", "% of control remaining": 131.206},
      {"compound": "CSc1ccccc1CNC(=O)Cn1nnc(-c2ccc(CN3CCC(C)CC3)cc2)n1", "note": "[CBK144573C]", "% of control remaining": 106.129},
      {"compound": "COc1cccc(CC(=O)Nc2ncccc2OCCCC#N)c1", "note": "[CBK304961]", "% of control remaining": 116.509},
      {"compound": "O=C(CSc1cccs1)Nc1nccs1", "note": "[CBK019601]", "% of control remaining": 155.335},
      {"compound": "O=C(NCc1cccc(C(F)(F)F)c1)N1CCN(c2ccc(F)cc2)CC1", "note": "[CBK156390]", "% of control remaining": 100},
      {"compound": "O=C(Nc1ccc(S(=O)(=O)N2CCCCC2)cc1)c1ccc(NS(=O)(=O)c2ccccc2)cc1", "note": "[CBK268348]", "% of control remaining": 114.973},
      {"compound": "O=C(CC1(O)C(=O)N(Cc2ccccc2Cl)c2ccccc21)c1cc2ccccc2oc1=O", "note": "(stereo not shown) [CBK265255]", "% of control remaining": 114.511},
      {"compound": "O=c1[nH]c2ccc(Cl)cc2c(-c2ccccc2)c1N1CCN(Cc2ccc3c(c2)OCO3)CC1", "note": "[CBK265776]", "% of control remaining": 106.03},
      {"compound": "C=CCN(CC=C)CCOc1c(C)cc(C)cc1Br", "note": "[CBK266070G]", "% of control remaining": 111.071},
      {"compound": "O=C(NC1CCCC1)c1cc(=O)n(Cc2ccc(Cl)cc2)c2ccccc12", "note": "[CBK294464]", "% of control remaining": 166.395},
      {"compound": "CN(C)Cc1cc(-c2ccccc2F)nn1CCNC(=O)C1CCC1", "note": "[CBK283471]", "% of control remaining": 158.906},
      {"compound": "CC(=O)Nc1cc(C(=O)NCc2ccc(F)cc2)ccc1Sc1ccc(Cl)cc1", "note": "[CBK294468]", "% of control remaining": 131.885},
      {"compound": "O=C(c1ccc(-n2ccnc2)c(-n2cccc2)c1)N1CCSCC1", "note": "[CBK285364]", "% of control remaining": 127.199}
    ]}
  ]
}
